Results are given in words; binding and its absence hold for the method and conditions named. Some results given as binding are weak or reduced against the parent protein; the word gives no strength.
Columns and labels:
eIF4e = eIF4e (UniProt P06730); test: Flag IP and immunoblot, ET 293-TLR4/CD14/MD2 cells
eIF3b = eIF3b (UniProt P55884); test: Flag IP and immunoblot, densitometry
[1] = molecular target: T1, splicing factor SF3B1 (mouse) (UniProt Q99NB9); test: LFQ UNC0965 ChaC-MS, Raw 264.7 macrophages
T1 sequence (looked up): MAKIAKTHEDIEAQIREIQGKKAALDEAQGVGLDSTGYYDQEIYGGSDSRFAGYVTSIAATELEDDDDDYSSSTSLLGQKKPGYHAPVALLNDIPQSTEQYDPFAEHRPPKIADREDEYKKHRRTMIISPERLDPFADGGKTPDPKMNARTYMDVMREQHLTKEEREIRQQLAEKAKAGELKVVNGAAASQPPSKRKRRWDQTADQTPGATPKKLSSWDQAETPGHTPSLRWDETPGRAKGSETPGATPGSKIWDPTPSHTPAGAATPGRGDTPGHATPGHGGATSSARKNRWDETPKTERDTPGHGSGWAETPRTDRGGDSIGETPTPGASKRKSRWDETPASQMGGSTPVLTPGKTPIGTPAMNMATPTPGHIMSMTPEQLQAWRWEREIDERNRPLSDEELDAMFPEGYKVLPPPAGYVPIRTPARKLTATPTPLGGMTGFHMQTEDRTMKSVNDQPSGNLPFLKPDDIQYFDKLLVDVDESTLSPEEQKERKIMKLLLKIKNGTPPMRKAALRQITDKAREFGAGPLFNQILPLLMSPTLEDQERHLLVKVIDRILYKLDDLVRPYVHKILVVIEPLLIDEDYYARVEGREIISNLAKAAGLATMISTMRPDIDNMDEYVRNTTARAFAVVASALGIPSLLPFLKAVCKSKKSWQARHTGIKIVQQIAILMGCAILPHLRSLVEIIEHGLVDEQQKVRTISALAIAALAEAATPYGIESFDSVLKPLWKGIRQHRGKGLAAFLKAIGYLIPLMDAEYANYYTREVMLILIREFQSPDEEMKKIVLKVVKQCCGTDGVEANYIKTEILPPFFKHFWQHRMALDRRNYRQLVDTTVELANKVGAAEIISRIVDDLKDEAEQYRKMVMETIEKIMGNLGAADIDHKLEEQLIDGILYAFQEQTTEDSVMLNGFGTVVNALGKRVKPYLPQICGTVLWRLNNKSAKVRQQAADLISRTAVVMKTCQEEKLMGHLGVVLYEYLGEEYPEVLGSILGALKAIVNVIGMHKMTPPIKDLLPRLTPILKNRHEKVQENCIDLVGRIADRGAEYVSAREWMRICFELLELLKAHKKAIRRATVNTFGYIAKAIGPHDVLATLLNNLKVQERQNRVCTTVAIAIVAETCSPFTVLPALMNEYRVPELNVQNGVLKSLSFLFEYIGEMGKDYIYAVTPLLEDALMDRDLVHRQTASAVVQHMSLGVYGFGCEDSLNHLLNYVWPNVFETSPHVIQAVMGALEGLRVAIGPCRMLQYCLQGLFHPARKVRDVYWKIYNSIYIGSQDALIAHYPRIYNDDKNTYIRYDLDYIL

The chains behind the UniProt entries cited, without tags or fusion partners. Where a name states a change or a piece, a line headed by the entry shows the natural chain unless it says otherwise. Residues count along the entry.
UniProt P06730, residues 2-217: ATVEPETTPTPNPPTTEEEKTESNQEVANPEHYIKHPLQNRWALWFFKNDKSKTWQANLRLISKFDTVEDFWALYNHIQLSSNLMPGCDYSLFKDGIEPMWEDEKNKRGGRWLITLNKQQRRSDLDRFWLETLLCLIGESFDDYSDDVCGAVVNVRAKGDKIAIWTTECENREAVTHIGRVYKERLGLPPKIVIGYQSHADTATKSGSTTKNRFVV
UniProt Q6PDG5: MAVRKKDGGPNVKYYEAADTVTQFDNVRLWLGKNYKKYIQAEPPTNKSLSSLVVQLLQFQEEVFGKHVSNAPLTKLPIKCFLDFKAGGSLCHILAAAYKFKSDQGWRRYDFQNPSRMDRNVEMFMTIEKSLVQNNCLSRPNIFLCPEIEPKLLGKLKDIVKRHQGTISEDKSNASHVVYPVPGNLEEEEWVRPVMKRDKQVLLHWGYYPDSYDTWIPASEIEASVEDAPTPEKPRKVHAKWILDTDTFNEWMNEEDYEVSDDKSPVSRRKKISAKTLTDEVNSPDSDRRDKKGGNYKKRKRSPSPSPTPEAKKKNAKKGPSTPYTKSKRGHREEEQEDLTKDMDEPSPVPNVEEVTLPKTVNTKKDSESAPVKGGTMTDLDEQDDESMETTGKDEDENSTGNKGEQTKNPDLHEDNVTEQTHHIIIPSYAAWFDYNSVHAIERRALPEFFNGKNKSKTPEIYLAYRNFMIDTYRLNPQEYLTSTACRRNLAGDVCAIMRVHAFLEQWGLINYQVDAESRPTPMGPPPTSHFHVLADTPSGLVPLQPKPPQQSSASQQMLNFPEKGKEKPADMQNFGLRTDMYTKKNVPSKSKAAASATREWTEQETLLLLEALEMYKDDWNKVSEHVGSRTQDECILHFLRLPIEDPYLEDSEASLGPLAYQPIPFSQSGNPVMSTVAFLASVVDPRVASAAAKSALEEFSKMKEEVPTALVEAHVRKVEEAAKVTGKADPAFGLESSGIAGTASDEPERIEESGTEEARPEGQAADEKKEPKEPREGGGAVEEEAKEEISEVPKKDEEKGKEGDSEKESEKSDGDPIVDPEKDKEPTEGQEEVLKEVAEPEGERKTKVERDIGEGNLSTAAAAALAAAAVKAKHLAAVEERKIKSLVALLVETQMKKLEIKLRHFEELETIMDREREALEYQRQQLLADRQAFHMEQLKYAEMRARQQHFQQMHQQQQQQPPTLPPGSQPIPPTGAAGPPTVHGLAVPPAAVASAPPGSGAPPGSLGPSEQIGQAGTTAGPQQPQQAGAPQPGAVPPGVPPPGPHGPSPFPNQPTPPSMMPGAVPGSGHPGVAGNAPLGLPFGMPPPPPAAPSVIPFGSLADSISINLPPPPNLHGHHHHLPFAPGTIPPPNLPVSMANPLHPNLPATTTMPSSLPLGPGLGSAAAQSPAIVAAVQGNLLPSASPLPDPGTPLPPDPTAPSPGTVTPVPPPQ
UniProt Q7JJ13: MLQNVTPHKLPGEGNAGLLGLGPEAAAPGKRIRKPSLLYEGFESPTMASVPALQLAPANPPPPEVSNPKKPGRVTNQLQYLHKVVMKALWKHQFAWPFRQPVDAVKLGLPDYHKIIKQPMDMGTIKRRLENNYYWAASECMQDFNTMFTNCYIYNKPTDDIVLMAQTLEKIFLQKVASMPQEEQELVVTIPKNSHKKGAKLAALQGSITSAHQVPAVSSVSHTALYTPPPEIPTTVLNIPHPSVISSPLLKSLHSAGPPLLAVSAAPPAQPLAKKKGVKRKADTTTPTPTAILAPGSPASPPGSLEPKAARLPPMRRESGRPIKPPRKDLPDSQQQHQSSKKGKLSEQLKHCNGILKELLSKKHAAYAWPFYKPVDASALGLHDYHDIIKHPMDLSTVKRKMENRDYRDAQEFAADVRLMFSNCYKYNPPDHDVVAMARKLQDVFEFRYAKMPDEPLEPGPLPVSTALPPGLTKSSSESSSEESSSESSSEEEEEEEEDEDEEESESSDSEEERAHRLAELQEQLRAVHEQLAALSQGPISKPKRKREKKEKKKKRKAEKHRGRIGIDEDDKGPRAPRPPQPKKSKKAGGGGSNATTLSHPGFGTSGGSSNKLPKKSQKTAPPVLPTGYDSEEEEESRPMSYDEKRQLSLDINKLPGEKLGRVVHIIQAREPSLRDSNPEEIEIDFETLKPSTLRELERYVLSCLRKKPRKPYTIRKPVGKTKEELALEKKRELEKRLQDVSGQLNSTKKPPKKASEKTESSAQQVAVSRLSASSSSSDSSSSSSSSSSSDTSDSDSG
UniProt P45481, residues 2-2441: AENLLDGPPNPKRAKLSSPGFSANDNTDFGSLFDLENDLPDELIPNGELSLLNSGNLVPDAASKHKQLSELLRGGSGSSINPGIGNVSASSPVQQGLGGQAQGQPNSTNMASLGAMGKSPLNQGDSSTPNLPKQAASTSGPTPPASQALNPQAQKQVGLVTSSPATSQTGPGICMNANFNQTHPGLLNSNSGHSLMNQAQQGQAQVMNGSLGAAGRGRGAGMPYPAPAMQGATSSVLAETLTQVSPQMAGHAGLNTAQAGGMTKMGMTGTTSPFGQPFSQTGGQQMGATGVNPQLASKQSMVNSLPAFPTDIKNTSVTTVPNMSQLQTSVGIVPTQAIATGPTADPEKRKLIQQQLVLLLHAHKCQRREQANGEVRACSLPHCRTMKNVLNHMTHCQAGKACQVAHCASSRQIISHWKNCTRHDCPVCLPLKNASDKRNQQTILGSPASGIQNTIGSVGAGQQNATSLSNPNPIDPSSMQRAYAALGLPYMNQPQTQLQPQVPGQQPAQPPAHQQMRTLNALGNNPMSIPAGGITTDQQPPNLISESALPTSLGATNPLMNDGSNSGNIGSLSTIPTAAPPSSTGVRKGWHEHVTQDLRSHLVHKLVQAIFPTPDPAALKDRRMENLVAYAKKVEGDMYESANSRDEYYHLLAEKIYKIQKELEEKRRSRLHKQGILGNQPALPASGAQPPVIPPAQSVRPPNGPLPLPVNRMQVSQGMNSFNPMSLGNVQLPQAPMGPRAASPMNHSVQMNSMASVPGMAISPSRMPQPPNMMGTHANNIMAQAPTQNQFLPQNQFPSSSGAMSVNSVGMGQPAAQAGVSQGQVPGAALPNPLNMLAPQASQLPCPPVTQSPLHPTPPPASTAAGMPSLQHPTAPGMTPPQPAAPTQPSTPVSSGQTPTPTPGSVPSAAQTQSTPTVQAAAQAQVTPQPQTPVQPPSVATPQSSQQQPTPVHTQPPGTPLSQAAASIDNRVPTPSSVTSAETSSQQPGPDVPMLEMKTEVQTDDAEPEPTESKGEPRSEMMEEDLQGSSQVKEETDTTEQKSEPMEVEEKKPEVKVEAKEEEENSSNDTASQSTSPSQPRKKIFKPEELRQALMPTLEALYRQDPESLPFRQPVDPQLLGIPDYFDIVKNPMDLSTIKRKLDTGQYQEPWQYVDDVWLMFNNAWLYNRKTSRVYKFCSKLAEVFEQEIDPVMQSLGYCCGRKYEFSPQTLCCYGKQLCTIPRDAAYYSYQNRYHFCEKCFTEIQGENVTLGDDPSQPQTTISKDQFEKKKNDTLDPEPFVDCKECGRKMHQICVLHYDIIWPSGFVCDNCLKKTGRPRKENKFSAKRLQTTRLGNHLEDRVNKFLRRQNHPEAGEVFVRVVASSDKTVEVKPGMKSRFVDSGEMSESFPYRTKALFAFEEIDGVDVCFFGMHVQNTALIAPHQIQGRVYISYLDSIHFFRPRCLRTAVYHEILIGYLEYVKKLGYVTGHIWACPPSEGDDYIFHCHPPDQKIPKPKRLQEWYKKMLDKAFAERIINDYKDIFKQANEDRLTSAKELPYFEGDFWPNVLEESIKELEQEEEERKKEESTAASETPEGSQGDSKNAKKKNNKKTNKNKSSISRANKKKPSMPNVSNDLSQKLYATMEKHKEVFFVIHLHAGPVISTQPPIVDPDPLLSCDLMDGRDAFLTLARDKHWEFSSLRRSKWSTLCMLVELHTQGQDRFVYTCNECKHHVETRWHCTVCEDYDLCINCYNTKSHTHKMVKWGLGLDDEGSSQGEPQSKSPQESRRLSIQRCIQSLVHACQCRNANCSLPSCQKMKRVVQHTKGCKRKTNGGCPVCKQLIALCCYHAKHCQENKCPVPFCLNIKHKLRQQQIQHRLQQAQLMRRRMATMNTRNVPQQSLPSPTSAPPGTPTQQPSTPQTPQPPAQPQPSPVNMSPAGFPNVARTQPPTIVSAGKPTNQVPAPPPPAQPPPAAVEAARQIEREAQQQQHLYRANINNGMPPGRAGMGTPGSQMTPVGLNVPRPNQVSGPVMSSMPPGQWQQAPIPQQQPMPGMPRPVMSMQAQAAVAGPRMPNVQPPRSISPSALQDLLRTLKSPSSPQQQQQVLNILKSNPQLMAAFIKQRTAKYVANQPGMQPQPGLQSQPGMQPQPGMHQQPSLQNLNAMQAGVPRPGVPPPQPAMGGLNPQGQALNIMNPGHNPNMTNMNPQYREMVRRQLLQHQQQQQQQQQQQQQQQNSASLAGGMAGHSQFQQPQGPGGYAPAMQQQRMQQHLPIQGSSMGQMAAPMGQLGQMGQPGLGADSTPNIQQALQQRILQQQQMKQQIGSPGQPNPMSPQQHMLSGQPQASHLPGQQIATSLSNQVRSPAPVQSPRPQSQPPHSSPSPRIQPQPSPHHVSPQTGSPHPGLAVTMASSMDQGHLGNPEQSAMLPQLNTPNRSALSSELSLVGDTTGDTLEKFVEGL
UniProt Q86U44: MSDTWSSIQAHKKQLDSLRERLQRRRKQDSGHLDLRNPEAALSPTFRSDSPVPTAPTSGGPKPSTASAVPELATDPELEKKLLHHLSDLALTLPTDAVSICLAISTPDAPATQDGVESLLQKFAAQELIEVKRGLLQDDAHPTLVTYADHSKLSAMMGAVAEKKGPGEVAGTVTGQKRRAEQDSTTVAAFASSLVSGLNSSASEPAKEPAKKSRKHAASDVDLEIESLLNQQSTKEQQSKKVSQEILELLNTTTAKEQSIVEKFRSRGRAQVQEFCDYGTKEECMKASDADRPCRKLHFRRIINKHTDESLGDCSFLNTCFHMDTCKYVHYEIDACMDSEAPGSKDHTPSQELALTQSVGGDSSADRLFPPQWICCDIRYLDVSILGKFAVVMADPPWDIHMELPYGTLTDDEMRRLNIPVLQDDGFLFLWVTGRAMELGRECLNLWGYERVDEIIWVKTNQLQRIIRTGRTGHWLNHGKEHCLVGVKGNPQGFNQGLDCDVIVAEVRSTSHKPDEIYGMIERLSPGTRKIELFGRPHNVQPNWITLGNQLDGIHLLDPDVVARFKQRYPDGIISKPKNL
UniProt Q9Z148: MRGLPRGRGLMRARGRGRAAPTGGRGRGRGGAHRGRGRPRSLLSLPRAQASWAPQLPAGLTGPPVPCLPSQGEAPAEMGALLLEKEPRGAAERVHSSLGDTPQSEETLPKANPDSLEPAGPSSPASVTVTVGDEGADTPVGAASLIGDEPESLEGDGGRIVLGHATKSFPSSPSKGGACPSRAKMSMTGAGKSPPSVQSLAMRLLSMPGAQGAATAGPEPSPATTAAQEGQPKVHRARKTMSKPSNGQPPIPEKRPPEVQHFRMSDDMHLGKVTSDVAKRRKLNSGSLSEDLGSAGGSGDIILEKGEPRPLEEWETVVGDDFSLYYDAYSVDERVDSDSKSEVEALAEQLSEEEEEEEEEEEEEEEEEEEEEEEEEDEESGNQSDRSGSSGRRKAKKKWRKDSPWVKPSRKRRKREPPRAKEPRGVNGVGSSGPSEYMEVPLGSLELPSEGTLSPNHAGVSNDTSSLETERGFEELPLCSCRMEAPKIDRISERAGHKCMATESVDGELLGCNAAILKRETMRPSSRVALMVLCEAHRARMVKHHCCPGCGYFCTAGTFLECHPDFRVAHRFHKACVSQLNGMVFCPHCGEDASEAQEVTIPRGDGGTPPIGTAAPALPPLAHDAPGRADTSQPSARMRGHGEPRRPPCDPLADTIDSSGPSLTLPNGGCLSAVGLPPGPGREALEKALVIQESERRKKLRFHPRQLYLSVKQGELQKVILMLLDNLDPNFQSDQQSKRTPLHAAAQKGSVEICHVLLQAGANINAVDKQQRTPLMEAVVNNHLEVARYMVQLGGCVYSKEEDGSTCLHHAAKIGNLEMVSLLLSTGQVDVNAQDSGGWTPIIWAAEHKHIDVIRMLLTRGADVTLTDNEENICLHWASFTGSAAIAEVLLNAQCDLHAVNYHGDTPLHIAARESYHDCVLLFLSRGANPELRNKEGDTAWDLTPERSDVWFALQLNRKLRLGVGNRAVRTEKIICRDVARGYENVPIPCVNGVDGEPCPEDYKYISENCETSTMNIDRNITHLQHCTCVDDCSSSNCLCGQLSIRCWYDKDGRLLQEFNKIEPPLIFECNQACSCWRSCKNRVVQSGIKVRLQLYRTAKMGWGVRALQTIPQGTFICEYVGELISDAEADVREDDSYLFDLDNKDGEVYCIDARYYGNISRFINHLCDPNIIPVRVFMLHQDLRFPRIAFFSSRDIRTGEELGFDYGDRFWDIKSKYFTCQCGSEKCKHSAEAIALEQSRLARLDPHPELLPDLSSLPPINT

[2] = molecular target: T1, splicing factor SF3B1 (mouse); test: UNC0965 ChaC-MS (recap)
[3] = molecular target: endogenous METTL3 of Raw 264.7 macrophages (mouse) (UniProt Q8C3P7); test: UNC0965 ChaC-MS (recap)
SMARCA4 (mouse) = SMARCA4 (mouse) (UniProt Q3TKT4); test: UNC0965 ChaC-MS (recap)
SMARCC2 (mouse) = SMARCC2 (mouse) (UniProt Q6PDG5); test: UNC0965 ChaC-MS (recap)
BRD2 (mouse) = BRD2 (mouse) (UniProt Q7JJ13); test: UNC0965 ChaC-MS (recap)
SMARCA2 (mouse) = SMARCA2 (mouse) (UniProt Q6DIC0); test: UNC0965 ChaC-MS (recap)
CREBBP (mouse) = CREBBP (mouse) (UniProt P45481); test: UNC0965 ChaC-MS (recap)
[4] = molecular target: endogenous METTL3 of Raw 264.7 macrophages (mouse) (UniProt Q8C3P7); test: UNC0965 pull-down and immunoblot, Raw264.7 macrophages
[5] = molecular target: histone methyltransferase Ezh2 (Enhancer of zeste homolog 2) (mouse) (UniProt Q61188); test: LFQ UNC0965 ChaC-MS, macrophages
EED (mouse) = EED (mouse) (UniProt Q921E6); test: LFQ UNC0965 ChaC-MS, macrophages
SUZ12 (mouse) = SUZ12 (mouse) (UniProt Q80U70); test: LFQ UNC0965 ChaC-MS, macrophages

Measured: binding

Flag-K215R METTL3 (from UniProt Q86U44 1-580) (enzyme)
binds: eIF4e | eIF3b

Flag-K281R METTL3 (from UniProt Q86U44 1-580) (enzyme)
binds: eIF4e | eIF3b

endogenous G9a of Raw 264.7 macrophages (from UniProt Q9Z148 1-1263) (enzyme)
not listed: eIF4e | eIF3b
binds: all other assays above

Source: US20230414619A1
